These are yes or no findings as the source states them, for the method shown. Binding seen in cells or lysates may run through a third protein. Some binding calls cover weakened binding; strength is not graded here.
Experiments:
Bax D33A (human) = Bax D33A (human) (UniProt Q07812); test: split reporter; BiFC: VN- and VC-Venus fragment fusions (N-terminal) co-transfected in HeLa cells with an mRFP vector, 30 µM Z-VAD-fmk, 37 °C, 24 h; Venus/mRFP mean fluorescence ratio of mRFP-positive cells by flow cytometry; in some experiments ABT-199, A-1155463 or S63845 added 1 h after transfection (reduced the complexes of Bcl-2, Bcl-XL or Mcl-1 with Bim, Puma and Noxa)
Bax K21E (human) = Bax K21E (human) (UniProt Q07812); test: as above

Chains of the proteins cited; added tags and fusions are not shown. Lines headed by an entry give the natural chain unless they say otherwise; changes in a name come on top.
UniProt Q07812: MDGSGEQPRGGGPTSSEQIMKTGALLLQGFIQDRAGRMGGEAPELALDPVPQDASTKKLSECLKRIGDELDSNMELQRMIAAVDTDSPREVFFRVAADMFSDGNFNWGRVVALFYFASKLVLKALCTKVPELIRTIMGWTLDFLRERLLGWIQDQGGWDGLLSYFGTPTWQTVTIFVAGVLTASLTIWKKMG
UniProt Q9BXH1: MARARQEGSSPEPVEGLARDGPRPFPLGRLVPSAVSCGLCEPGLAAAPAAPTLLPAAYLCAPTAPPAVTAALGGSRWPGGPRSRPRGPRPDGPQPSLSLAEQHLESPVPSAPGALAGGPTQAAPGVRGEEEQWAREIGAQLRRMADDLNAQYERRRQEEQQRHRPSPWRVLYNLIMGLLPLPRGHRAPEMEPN
UniProt P10415: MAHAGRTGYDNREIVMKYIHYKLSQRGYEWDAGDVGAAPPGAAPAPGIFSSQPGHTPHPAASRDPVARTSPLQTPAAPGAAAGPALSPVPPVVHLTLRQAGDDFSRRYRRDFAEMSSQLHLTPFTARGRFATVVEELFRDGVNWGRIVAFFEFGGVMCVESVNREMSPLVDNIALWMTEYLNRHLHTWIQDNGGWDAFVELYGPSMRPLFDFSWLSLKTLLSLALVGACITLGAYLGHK

binding (Bax D33A (human))	binding (Bax K21E (human))	Substance
binds	binds	Puma (from UniProt Q9BXH1 1-193)
binds		Bcl-2 (from UniProt P10415 1-239)
